Patent US20230357430A1, “RNF167 AND CASTOR1 AS NOVEL MTOR TARGETS” (UNIVERSITY OF PITTSBURGH - OF THE COMMONWEALTH SYSTEM OF …, priority 2020, published 2023)
These are yes or no findings as the source states them, for the method shown. Binding seen in cells or lysates may run through a third protein. Some entries that bind do so weakly or less than the wild type. Sequences can lack the tags named with a protein.

Protein sequences, listed by entry. Tags and fused reporters are not part of them. Lines headed by an entry give the natural chain unless they say otherwise; changes in a name come on top. Residues count along the entry.
UniProt P31749: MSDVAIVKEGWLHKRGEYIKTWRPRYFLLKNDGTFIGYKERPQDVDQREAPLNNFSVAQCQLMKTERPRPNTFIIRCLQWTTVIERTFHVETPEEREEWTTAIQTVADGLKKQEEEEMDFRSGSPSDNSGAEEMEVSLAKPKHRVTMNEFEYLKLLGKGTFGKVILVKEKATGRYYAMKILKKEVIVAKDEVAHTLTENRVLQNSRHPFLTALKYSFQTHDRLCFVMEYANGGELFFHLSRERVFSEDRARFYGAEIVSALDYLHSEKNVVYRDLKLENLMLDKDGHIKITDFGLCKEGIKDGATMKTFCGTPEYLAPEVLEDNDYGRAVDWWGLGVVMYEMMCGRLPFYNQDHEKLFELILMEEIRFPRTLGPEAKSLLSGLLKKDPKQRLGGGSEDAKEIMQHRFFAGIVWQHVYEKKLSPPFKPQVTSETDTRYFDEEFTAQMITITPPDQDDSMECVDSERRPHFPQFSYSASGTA
AKT1 kinase domain: residues 120-433 of P31749

Columns and labels:
[1] = target: T1, human CASTOR1 wild type (Flag-CASTOR1 WT) (human) (UniProt Q8WTX7); assay: co-immunoprecipitation, MCF7 cells (FIG. 13B)
T1 sequence (looked up): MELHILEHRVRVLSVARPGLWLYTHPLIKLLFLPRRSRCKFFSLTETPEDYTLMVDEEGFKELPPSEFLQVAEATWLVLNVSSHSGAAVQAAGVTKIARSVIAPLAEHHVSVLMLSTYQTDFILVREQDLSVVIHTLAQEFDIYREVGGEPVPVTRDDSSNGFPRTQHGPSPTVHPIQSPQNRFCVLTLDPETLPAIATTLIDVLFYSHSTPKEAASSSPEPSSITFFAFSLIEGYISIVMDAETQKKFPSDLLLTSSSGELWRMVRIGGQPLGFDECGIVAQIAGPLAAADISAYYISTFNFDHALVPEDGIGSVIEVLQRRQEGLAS

[2] = target: AKT1 (ectopically expressed) (UniProt P31749); assay: co-immunoprecipitation and immunoblotting (FIGS. 8J-8M)
[3] = target: AKT1 (ectopically expressed) (UniProt P31749); assay: co-immunoprecipitation, two experiments quantified (FIGS. 8J-8M)
[4] = target: AKT1 (ectopically expressed) (UniProt P31749); assay: co-immunoprecipitation, MCF7 cells (FIG. 13B)
[5] = target: AKT1 (ectopically expressed) (UniProt P31749); assay: co-immunoprecipitation and immunoblotting (FIGS. 8A-8F)
[6] = target: AKT1 (ectopically expressed) (UniProt P31749); assay: co-immunoprecipitation and immunoblotting (FIGS. 8A, 8C)
AKT1 kinase domain [7] = target: AKT1 kinase domain (UniProt P31749); assay: co-immunoprecipitation with AKT1 domain constructs (FIG. 8F)
AKT1 kinase domain [8] = target: AKT1 kinase domain (UniProt P31749); assay: co-immunoprecipitation with AKT1 domain constructs (FIGS. 8E-8F)
[9] = target: AKT1 (ectopically expressed) (UniProt P31749); assay: co-immunoprecipitation (discussion of Example 1)

Measured: binding

AKT1 (ectopically expressed) (from UniProt P31749 1-480) (enzyme)
binds: [1]

B1: human Flag-CASTOR1 S14A (protein, UniProt Q8WTX7 1-329, looked up, not shown: small tags and cut ends)
chain: MELHILEHRVRVLAVARPGLWLYTHPLIKLLFLPRRSRCKFFSLTETPEDYTLMVDEEGFKELPPSEFLQVAEATWLVLNVSSHSGAAVQAAGVTKIARSVIAPLAEHHVSVLMLSTYQTDFILVREQDLSVVIHTLAQEFDIYREVGGEPVPVTRDDSSNGFPRTQHGPSPTVHPIQSPQNRFCVLTLDPETLPAIATTLIDVLFYSHSTPKEAASSSPEPSSITFFAFSLIEGYISIVMDAETQKKFPSDLLLTSSSGELWRMVRIGGQPLGFDECGIVAQIAGPLAAADISAYYISTFNFDHALVPEDGIGSVIEVLQRRQEGLAS
binds: [2] | [3]

B2: human CASTOR1 wild type (Flag-CASTOR1 WT) (other, UniProt Q8WTX7 1-329, looked up)
chain: MELHILEHRVRVLSVARPGLWLYTHPLIKLLFLPRRSRCKFFSLTETPEDYTLMVDEEGFKELPPSEFLQVAEATWLVLNVSSHSGAAVQAAGVTKIARSVIAPLAEHHVSVLMLSTYQTDFILVREQDLSVVIHTLAQEFDIYREVGGEPVPVTRDDSSNGFPRTQHGPSPTVHPIQSPQNRFCVLTLDPETLPAIATTLIDVLFYSHSTPKEAASSSPEPSSITFFAFSLIEGYISIVMDAETQKKFPSDLLLTSSSGELWRMVRIGGQPLGFDECGIVAQIAGPLAAADISAYYISTFNFDHALVPEDGIGSVIEVLQRRQEGLAS
notes: Expressed in cells and pulled down from lysates; also called HA-CASTOR1; cytosolic arginine sensor for mTORC1 subunit 1; not shown: N-terminal Flag tag
not listed: [1] | [3] | [9]
binds: all other assays above

B3: human Flag-CASTOR1 S14D (protein, UniProt Q8WTX7 1-329, looked up, not shown: small tags and cut ends)
chain: MELHILEHRVRVLDVARPGLWLYTHPLIKLLFLPRRSRCKFFSLTETPEDYTLMVDEEGFKELPPSEFLQVAEATWLVLNVSSHSGAAVQAAGVTKIARSVIAPLAEHHVSVLMLSTYQTDFILVREQDLSVVIHTLAQEFDIYREVGGEPVPVTRDDSSNGFPRTQHGPSPTVHPIQSPQNRFCVLTLDPETLPAIATTLIDVLFYSHSTPKEAASSSPEPSSITFFAFSLIEGYISIVMDAETQKKFPSDLLLTSSSGELWRMVRIGGQPLGFDECGIVAQIAGPLAAADISAYYISTFNFDHALVPEDGIGSVIEVLQRRQEGLAS
binds: [9] | [2] | [3]
